Source: article PMC11564727
No constants are given. Whether binding was seen depends on the method and setting. In cells and extracts the contact can be indirect. Some results given as binding are weak or reduced against the parent protein; the word gives no strength. For part of these data: Sequences can lack the tags named with a protein. Each block holds one binder with its values, some of them ahead of it.

Chains of the proteins cited; added tags and fusions are not shown.
UniProt Q92793: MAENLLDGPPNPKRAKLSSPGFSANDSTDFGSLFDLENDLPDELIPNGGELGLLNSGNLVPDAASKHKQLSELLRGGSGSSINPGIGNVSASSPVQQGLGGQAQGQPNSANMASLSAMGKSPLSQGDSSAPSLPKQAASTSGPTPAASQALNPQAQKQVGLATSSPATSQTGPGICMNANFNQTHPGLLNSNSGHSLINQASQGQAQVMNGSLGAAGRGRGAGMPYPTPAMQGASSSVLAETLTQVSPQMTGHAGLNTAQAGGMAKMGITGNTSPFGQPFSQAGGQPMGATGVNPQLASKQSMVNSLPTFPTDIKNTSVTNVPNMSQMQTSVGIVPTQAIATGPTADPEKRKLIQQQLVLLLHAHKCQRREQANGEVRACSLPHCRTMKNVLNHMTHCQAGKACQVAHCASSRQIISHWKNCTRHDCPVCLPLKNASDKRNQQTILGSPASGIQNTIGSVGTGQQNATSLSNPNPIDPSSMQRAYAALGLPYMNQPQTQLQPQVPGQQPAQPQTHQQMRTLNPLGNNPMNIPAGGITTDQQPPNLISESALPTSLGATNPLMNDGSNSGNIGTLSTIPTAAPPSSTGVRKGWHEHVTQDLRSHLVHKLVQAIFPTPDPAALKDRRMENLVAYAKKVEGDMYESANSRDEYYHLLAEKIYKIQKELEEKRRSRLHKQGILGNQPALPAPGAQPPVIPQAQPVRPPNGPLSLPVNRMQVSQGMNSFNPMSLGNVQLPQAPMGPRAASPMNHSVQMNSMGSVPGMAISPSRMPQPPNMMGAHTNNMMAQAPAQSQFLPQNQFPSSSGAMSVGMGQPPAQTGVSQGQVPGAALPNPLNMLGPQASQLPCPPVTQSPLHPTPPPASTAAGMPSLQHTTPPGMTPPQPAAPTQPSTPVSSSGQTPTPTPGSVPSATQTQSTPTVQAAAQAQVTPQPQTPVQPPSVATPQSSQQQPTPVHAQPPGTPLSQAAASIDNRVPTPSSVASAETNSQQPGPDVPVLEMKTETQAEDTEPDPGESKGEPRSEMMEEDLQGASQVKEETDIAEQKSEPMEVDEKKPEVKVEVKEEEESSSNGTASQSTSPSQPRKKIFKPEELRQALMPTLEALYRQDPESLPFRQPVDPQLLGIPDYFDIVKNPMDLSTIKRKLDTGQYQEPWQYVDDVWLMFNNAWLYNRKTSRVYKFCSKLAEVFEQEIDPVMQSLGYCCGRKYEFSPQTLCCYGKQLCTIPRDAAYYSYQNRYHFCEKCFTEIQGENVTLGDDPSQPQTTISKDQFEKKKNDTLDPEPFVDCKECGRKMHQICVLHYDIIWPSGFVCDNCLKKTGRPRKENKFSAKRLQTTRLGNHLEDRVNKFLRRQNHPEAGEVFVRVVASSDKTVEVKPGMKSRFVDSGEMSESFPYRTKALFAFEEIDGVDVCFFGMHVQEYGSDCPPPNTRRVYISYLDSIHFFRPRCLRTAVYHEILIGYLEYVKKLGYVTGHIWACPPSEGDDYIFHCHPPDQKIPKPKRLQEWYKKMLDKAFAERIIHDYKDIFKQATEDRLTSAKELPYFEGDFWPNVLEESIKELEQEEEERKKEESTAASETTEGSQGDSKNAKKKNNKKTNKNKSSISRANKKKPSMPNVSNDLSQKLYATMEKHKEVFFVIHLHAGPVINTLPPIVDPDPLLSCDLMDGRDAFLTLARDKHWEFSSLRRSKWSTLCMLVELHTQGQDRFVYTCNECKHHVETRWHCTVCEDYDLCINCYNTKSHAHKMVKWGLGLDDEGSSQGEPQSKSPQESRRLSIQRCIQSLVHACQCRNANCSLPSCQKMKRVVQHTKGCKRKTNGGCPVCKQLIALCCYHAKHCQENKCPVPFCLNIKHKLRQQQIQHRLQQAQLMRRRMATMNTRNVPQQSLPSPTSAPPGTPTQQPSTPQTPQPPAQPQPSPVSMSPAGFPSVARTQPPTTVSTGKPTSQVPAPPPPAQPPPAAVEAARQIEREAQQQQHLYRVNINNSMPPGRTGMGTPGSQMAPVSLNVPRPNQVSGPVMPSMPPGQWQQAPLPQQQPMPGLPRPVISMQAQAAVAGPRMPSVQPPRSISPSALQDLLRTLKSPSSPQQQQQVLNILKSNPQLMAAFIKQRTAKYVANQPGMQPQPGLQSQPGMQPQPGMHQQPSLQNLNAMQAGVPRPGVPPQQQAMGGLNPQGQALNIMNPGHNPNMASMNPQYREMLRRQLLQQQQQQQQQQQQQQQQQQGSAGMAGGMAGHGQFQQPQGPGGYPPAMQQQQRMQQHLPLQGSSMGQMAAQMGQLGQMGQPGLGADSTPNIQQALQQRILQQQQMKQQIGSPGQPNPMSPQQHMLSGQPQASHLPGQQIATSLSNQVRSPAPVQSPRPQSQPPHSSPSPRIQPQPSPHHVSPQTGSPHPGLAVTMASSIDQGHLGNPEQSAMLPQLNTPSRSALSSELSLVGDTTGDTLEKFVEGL

Experiments:
[1] = target: CREB-binding protein (human (endogenous in MDA-MB-231)) (UniProt Q92793); assay: co-IP; MDA-MB-231 cell lysate in IP lysis buffer with protease inhibitors; specific antibodies overnight at 4 °C, protein A/G beads 1 h at 25 °C; western blot (Fig. 6A, C-E)
[2] = target: CREB-binding protein (human (endogenous in MDA-MB-231)) (UniProt Q92793); assay: co-IP; MDA-MB-231 cells transfected with vector, p53 or p53 K382R plasmid; precipitated with an anti-CBP antibody; western blot (Fig. 6K, L)
[3] = target: CREB-binding protein (human (endogenous in MDA-MB-231)) (UniProt Q92793); assay: co-IP; endogenous CBP precipitated with an anti-CBP antibody from control or FXR-overexpression cells; western blot (Fig. 6H)

- binding [1]: binds
- binding [2]: binds
B1: Farnesoid X receptor (protein, UniProt Q96RI1 1-486)
chain: MVMQFQGLENPIQISPHCSCTPSGFFMEMMSMKPAKGVLTEQVAGPLGQNLEVEPYSQYSNVQFPQVQPQISSSSYYSNLGFYPQQPEEWYSPGIYELRRMPAETLYQGETEVAEMPVTKKPRMGASAGRIKGDELCVVCGDRASGYHYNALTCEGCKGFFRRSITKNAVYKCKNGGNCVMDMYMRRKCQECRLRKCKEMGMLAECMYTGLLTEIQCKSKRLRKNVKQHADQTVNEDSEGRDLRQVTSTTKSCREKTELTPDQQTLLHFIMDSYNKQRMPQEITNKILKEEFSAEENFLILTEMATNHVQVLVEFTKKLPGFQTLDHEDQIALLKGSAVEAMFLRSAEIFNKKLPSGHSDLLEERIRNSGISDEYITPMFSFYKSIGELKMTQEEYALLTAIVILSPDRQYIKDREAVEKLQEPLLDVLQKLCKIHQPENPQHFACLLGRLTELRTFNHHHAEMLMSWRVNDHKFTPLLCEIWDVQ

- binding [3]: binds
B2: Flag-FXR (protein, UniProt Q96RI1 1-486)
chain: B1 chain
